Among the data in paper PMC5660093, “Structure of SgK223 pseudokinase reveals novel mechanisms of homotypic and heterotypic association” (Nature Communications, 2017) are binding values, retold here.

By UniProt entry, the sequences of proteins in these tests, tags left out.
UniProt Q9H792: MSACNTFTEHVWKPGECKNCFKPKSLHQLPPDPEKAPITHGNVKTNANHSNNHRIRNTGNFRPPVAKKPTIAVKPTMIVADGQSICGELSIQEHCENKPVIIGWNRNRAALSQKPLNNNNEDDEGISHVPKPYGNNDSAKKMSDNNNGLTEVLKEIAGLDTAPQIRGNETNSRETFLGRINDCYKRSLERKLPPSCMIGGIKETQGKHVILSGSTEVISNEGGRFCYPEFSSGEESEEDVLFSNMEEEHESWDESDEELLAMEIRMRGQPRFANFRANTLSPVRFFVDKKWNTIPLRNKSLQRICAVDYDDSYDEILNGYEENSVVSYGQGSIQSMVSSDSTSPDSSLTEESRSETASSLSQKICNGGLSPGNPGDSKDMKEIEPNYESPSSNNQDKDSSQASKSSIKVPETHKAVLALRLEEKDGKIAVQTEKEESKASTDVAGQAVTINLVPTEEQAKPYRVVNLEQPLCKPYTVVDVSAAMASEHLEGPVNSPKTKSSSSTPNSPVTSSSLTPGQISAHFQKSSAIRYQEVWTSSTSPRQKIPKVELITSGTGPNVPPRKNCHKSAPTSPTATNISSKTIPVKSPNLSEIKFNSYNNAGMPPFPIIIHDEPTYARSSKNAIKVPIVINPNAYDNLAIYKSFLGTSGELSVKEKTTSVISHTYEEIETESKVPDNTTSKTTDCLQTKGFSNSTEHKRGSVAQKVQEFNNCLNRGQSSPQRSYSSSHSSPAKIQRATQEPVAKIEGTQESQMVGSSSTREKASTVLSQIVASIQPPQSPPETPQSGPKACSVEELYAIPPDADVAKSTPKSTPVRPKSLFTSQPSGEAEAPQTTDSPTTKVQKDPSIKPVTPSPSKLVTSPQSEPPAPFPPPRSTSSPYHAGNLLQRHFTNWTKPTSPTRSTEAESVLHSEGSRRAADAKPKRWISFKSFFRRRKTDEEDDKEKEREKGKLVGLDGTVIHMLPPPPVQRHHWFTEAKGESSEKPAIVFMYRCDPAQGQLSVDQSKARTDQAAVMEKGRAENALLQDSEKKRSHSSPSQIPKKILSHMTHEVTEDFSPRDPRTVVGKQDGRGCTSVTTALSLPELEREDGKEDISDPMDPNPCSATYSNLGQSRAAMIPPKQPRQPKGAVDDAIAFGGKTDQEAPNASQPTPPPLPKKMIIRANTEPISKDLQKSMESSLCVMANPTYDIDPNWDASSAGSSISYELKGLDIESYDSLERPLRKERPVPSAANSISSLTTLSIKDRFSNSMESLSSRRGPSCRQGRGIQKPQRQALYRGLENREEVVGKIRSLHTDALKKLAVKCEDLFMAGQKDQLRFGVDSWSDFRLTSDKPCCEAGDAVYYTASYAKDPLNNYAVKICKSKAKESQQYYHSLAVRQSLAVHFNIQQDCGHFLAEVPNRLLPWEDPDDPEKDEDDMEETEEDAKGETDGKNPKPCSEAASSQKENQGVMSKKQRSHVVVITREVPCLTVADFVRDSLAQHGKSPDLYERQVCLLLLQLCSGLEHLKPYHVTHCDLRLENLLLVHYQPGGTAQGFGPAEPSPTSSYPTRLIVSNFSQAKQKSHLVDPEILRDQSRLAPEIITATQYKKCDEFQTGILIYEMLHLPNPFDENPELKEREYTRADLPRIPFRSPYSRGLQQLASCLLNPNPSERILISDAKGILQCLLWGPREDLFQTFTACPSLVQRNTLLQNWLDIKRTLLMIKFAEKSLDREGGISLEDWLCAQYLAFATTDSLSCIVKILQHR

Substitutions are numbered along the chain they refer to. Results are given in words; binding and its absence hold for the method and conditions named. In cells and extracts the contact can be indirect. Some results given as binding are weak or reduced against the parent protein; the word gives no strength. Tags and fused reporters may be left off the sequences shown.

The target of assay [1] is T1, HA-tagged SgK223-WT (MCF-10A SgK223 KO) (UniProt Q86YV5).
T1 sequence: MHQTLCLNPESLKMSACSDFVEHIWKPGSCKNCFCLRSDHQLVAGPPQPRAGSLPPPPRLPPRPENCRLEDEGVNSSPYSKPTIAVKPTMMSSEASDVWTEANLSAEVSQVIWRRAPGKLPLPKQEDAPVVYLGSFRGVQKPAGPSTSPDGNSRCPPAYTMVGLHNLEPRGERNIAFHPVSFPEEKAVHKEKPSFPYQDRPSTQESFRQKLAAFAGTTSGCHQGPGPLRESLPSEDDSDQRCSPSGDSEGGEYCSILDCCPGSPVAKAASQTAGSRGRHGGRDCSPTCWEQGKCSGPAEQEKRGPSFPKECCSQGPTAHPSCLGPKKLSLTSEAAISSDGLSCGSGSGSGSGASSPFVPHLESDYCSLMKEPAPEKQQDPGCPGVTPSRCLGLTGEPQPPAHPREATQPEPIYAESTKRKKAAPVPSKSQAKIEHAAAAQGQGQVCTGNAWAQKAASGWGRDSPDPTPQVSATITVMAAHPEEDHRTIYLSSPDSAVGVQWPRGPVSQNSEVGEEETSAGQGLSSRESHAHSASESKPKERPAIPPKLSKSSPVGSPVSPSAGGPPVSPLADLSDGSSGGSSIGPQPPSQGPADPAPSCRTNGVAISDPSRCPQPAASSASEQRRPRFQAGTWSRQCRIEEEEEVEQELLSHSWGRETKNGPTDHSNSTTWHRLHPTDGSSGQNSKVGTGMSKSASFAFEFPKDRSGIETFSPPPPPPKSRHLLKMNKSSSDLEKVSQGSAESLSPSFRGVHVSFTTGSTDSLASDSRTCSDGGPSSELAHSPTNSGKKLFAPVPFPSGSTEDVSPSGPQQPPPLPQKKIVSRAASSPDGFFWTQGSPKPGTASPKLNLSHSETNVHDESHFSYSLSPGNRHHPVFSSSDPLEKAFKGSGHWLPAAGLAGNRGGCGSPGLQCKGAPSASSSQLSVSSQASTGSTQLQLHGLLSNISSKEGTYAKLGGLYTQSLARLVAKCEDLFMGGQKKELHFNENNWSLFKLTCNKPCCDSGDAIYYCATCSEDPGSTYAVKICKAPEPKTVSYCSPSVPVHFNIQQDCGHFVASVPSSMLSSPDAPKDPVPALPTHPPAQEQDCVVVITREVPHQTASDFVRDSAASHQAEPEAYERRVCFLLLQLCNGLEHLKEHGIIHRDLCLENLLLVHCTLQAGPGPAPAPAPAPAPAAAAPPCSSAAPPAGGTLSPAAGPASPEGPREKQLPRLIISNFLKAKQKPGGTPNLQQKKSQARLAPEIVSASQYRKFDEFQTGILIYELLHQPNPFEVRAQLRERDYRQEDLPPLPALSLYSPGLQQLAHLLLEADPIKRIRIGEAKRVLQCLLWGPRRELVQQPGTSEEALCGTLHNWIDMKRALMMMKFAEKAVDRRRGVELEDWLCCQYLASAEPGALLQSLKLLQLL
The experiment in a line: co-IP; HA-tagged FL SgK223 WT or mutants expressed in MCF-10A SgK223 KO cells; immunoprecipitation with anti-HA, blot with anti-SgK269 for the endogenous protein.

The target of assay [2] is T2, HA-tagged FL SgK223 F1366A (MCF-10A SgK223 KO) (UniProt Q86YV5).
T2 sequence: T1 sequence with F1366A
Described as above.

Take “endogenous FL SgK269-WT (from UniProt Q9H792 1-1746)”: the binding entry in assay [1] is listed as “binds”; in assay [2] it was “no binding”.
